Laboratory results reported in publication PMC7070897 (Molecules, 2020).
No end group written: not given here. *: point of attachment. Boc = CC(C)(C)OC(=O)*

Assay: general procedure: Fmoc solid-phase peptide synthesis; TG-S-RAM (Iris Biotech), 0.23 mmol/mg; PyBop / NMM (PyAOP for lactam cyclization)
Conditions: whole synthesis; for crude purity (method not given) / final purity (method not given) / crude HPLC purity / final HPLC purity: analytical UHPLC
[1] = scale of the general procedure 50 µmol

| Substance | crude purity (method not given) [1] [%] | final purity (method not given) [1] [%] | crude mass (scale 50 µmol) [mg] | crude yield (scale 50 µmol) [%] | crude HPLC purity [1] [%] | final HPLC purity [1] [%] | difficulty met [1] | crude purity (method not given) (scale 50 µmol) [%] | final purity (method not given) (scale 50 µmol) [%] |
| --- | --- | --- | --- | --- | --- | --- | --- | --- | --- |
| Ac-(N-(2-(n-dodecylamino)-2-oxoethyl)-(cyclo-8,12))-[LAKLLKAKAKAD]-NH2 | 63 | >91 | 64.3 | 85 | – | – | – | – | – |
| Ac-(N-(2-(n-octadecylamino)-2-oxoethyl)-(cyclo-8,12))-[LKKLLKKKLKKE]-NH2 | 71 | >93 | 68.1 | 76 | – | – | – | – | – |
| Ac-(N-(2-(n-butylamino)-2-oxoethyl)-(cyclo-8,12))-[LAKLLKAKAKAD]-NH2 | 54 | >94 | 47.2 | 67 | – | – | – | – | – |
| Ac-LKKLLKKLLKKL | – | – | 69.1 | 92 | 86 | >98 | – | – | – |
| Ac-(cyclo-8,12))-[LAKLLKAKAKAD]-NH2 | – | – | 48.9 | 81 | 37 | >89 | 20% of dimerization product was observed in the crude peptide | – | – |
| Ac-(N-(2-(n-octadecylamino)-2-oxoethyl)-(cyclo-3,7))-[LKKLLKELLKKL]-NH2 | 68 | >90 | 72.4 | 81 | – | – | – | – | – |
| Ac-(cyclo-8,12))-[LKKLLKKKLKKE]-NH2 | – | – | 61.5 | 81 | 63 | >93 | – | – | – |
| Ac-LAK(Boc)LLK(Boc)AKAK(Boc)AD | – | – | – | – | – | – | – | >83 | >98 |
| Ac-(N-(2-(n-octadecylamino)-2-oxoethyl)-(cyclo-5,9))-[LKKLKKKLEKKL]-NH2 | 77 | >91 | 66.8 | 75 | – | – | – | – | – |
| Ac-(N-(2-(n-octadecylamino)-2-oxoethyl)-(cyclo-1,5))-[KKKLEKKLLKKL]-NH2 | 69 | >89 | 65.2 | 73 | – | – | – | – | – |
